Laboratory results as given in article PMC12204631.
No constants are given. Whether binding was seen depends on the method and setting. In cells and extracts the contact can be indirect. Some entries that bind do so weakly or less than the wild type. Tags and fused reporters may be left off the sequences shown. Values belong to the binder of their own block, whether it stands above or below them.

Legend:
[1] = biological target: T1, Dam1-3HA (S. cerevisiae) (UniProt P53267); assay: condition: only cells synchronized in G1 with α-factor; co-IP; as a1, but cells synchronized in G1 with α-factor; IP with α-HA conjugated agarose beads, western blot with α-HA and α-Myc
T1 sequence: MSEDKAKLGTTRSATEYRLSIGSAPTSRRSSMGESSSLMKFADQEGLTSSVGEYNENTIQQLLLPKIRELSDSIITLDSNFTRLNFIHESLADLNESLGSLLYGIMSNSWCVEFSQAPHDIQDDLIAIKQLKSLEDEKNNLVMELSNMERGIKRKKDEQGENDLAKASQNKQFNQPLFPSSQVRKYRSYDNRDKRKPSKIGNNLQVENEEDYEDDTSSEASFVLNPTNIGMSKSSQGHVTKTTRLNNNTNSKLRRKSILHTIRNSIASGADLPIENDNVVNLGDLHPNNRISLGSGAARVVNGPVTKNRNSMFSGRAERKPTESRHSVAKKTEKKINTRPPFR

[2] = biological target: T1, Dam1-3HA (S. cerevisiae); assay: co-IP; whole cell extracts of yeast expressing Dam1-3HA and Set1-9Myc from their native promoters; IP with α-HA conjugated agarose beads, western blot with α-HA and α-Myc; cells in S-phase (HU) and in metaphase (80 min after release from α-factor)
[3] = biological target: T2, Flag-tagged Jhd2 (S. cerevisiae) (UniProt P47156); assay: co-IP; whole cell extracts of LOG phase yeast with Dam1-3HA (endogenous promoter) and FLAG-JHD2 (GAL1 promoter, galactose+raffinose 6 hours); IP with α-HA conjugated and α-Flag conjugated agarose beads, western blot with α-HA and α-Flag
T2 sequence: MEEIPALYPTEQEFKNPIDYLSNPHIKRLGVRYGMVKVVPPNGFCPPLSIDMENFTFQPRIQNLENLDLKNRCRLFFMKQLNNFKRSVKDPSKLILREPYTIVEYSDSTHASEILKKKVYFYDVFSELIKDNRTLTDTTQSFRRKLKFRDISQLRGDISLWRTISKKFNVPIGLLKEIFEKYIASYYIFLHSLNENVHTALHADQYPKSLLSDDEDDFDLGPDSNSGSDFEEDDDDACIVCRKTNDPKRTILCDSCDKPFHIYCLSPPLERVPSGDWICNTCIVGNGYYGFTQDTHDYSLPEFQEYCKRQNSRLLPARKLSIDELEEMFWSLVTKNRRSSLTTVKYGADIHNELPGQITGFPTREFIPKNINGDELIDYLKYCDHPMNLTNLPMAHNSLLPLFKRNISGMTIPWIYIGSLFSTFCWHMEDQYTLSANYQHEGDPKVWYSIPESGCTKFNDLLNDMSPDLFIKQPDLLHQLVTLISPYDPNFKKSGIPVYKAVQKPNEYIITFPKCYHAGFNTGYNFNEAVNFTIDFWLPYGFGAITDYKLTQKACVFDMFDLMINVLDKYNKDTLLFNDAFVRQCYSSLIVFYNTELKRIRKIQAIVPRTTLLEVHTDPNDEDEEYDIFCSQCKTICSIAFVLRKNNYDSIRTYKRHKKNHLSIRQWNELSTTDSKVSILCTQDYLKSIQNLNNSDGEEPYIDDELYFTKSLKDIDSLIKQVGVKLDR

[4] = biological target: T1, Dam1-3HA (S. cerevisiae); assay: as above

- binding [1]: no binding
- binding [2]: binds
B1: Set1-9Myc (enzyme, UniProt P38827 1-1080)
chain: MSNYYRRAHASSGSYRQPQEQPQYSRSGHYQYSNGHSHQQYSSQYNQRRRYNHNDGTRRRYNDDRPHSSNNASTRQYYATNNSQSGPYVNKKSDISSRRGMSQSRYSNSNVHNTLASSSGSLPTESALLLQQRPPSVLRYNTDNLKSKFHYFDPIKGEFFNKDKMLSWKATDKEFSETGYYVVKELQDGQFKFKIKHRHPEIKASDPRNENGIMTSGKVATHRKCRNSLILLPRISYDRYSLGPPPSCEIVVYPAQDSTTTNIQDISIKNYFKKYGEISHFEAFNDPNSALPLHVYLIKYASSDGKINDAAKAAFSAVRKHESSGCFIMGFKFEVILNKHSILNNIISKFVEINVKKLQKLQENLKKAKEKEAENEKAKELQGKDITLPKEPKVDTLSHSSGSEKRIPYDLLGVVNNRPVLHVSKIFVAKHRFCVEDFKYKLRGYRCAKFIDHPTGIYIIFNDIAHAQTCSNAESGNLTIMSRSRRIPILIKFHLILPRFQNRTRFNKSSSSSNSTNVPIKYESKEEFIEATAKQILKDLEKTLHVDIKKRLIGPTVFDALDHANFPELLAKRELKEKEKRQQIASKIAEDELKRKEEAKRDFDLFGLYGGYAKSNKRNLKRHNSLALDHTSLKRKKLSNGIKPMAHLLNEETDSKETTPLNDEGITRVSKEHDEEDENMTSSSSEEEEEEAPDKKFKSESEPTTPESDHLHGIKPLVPDQNGSSDVLDASSMYKPTATEIPEPVYPPEEYDLKYSQTLSSMDLQNAIKDEEDMLILKQLLSTYTPTVTPETSAALEYKIWQSRRKVLEEEKASDWQIELNGTLFDSELQPGSSFKAEGFRKIADKLKINYLPHRRRVHQPLNTVNIHNERNEYTPELCQREESSNKEPSDSVPQEVSSSRDNRASNRRFQQDIEAQKAAIGTESELLSLNQLNKRKKPVMFARSAIHNWGLYALDSIAAKEMIIEYVGERIRQPVAEMREKRYLKNGIGSSYLFRVDENTVIDATKKGGIARFINHCCDPNCTAKIIKVGGRRRIVIYALRDIAASEELTYDYKFEREKDDEERLPCLCGAPNCKGFLN

- binding [3]: binds
B2: Dam1-3HA (protein, UniProt P53267 1-343)
chain: MSEDKAKLGTTRSATEYRLSIGSAPTSRRSSMGESSSLMKFADQEGLTSSVGEYNENTIQQLLLPKIRELSDSIITLDSNFTRLNFIHESLADLNESLGSLLYGIMSNSWCVEFSQAPHDIQDDLIAIKQLKSLEDEKNNLVMELSNMERGIKRKKDEQGENDLAKASQNKQFNQPLFPSSQVRKYRSYDNRDKRKPSKIGNNLQVENEEDYEDDTSSEASFVLNPTNIGMSKSSQGHVTKTTRLNNNTNSKLRRKSILHTIRNSIASGADLPIENDNVVNLGDLHPNNRISLGSGAARVVNGPVTKNRNSMFSGRAERKPTESRHSVAKKTEKKINTRPPFR

- binding [4]: binds
B3: Flag-tagged Jhd2 (enzyme, UniProt P47156 1-728)
chain: MEEIPALYPTEQEFKNPIDYLSNPHIKRLGVRYGMVKVVPPNGFCPPLSIDMENFTFQPRIQNLENLDLKNRCRLFFMKQLNNFKRSVKDPSKLILREPYTIVEYSDSTHASEILKKKVYFYDVFSELIKDNRTLTDTTQSFRRKLKFRDISQLRGDISLWRTISKKFNVPIGLLKEIFEKYIASYYIFLHSLNENVHTALHADQYPKSLLSDDEDDFDLGPDSNSGSDFEEDDDDACIVCRKTNDPKRTILCDSCDKPFHIYCLSPPLERVPSGDWICNTCIVGNGYYGFTQDTHDYSLPEFQEYCKRQNSRLLPARKLSIDELEEMFWSLVTKNRRSSLTTVKYGADIHNELPGQITGFPTREFIPKNINGDELIDYLKYCDHPMNLTNLPMAHNSLLPLFKRNISGMTIPWIYIGSLFSTFCWHMEDQYTLSANYQHEGDPKVWYSIPESGCTKFNDLLNDMSPDLFIKQPDLLHQLVTLISPYDPNFKKSGIPVYKAVQKPNEYIITFPKCYHAGFNTGYNFNEAVNFTIDFWLPYGFGAITDYKLTQKACVFDMFDLMINVLDKYNKDTLLFNDAFVRQCYSSLIVFYNTELKRIRKIQAIVPRTTLLEVHTDPNDEDEEYDIFCSQCKTICSIAFVLRKNNYDSIRTYKRHKKNHLSIRQWNELSTTDSKVSILCTQDYLKSIQNLNNSDGEEPYIDDELYFTKSLKDIDSLIKQVGVKLDR
